Test results from the supplement of paper PMC8728848.
Some of the results follow.

What was measured:
Test in all cases: glycan array binding signal (z-score within array); higher = stronger binding
Conditions in all cases: glycan notation: IUPAC condensed, linker removed
[1] = biological target: Gal(b1-3)GalNAc(a1-3)[Fuc(a1-2)]Gal(b1-4)GlcNAc
Summary of the method: (§1)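 Glycan array data came from 3228 arrays in the Consortium for Functional Glycomics database, and only arrays with an available protein sequence were kept. Glycan names were put into IUPAC-condensed notation, and columns mapping to the same glycan were averaged. The binding signal is a within-array Z-score, averaged across arrays of one protein sequence run at different concentrations or buffers and across linkers. A negative Z-score can be read as non-binding.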

[2] = biological target: Gal(b1-3)GalNAc(b1-3)Gal(a1-4)Gal(b1-4)Glc
Summary of the method: as §1

[3] = biological target: Gal(b1-3)GalNAc(b1-4)Gal(b1-4)Glc
Summary of the method: as §1

[4] = biological target: Gal(b1-3)GalNAc(b1-4)[Neu5Ac(a2-3)]Gal(b1-4)Glc
Summary of the method: as §1

[5] = biological target: Gal(b1-3)GlcNAc
Summary of the method: as §1

[6] = biological target: Gal(b1-3)GlcNAc(a1-6)Gal(b1-4)GlcNAc
Summary of the method: as §1

[7] = biological target: Gal(b1-3)GlcNAc(b1-2)Man(a1-3)[Gal(b1-3)GlcNAc(b1-2)Man(a1-6)]Man(b1-4)GlcNAc(b1-4)GlcNAc
Summary of the method: as §1

[8] = biological target: Gal(b1-3)GlcNAc(b1-2)Man(a1-3)[Gal(b1-3)GlcNAc(b1-2)Man(a1-6)]Man(b1-4)GlcNAc(b1-4)[Fuc(a1-6)]GlcNAc
Summary of the method: as §1

[9] = biological target: Gal(b1-3)GlcNAc(b1-3)Gal(b1-3)GlcNAc
Summary of the method: as §1

[10] = biological target: Gal(b1-3)GlcNAc(b1-3)Gal(b1-4)Glc
Summary of the method: as §1

[11] = biological target: Gal(b1-3)GlcNAc(b1-3)Gal(b1-4)GlcNAc
Summary of the method: as §1

[12] = biological target: Gal(b1-3)GlcNAc(b1-3)Gal(b1-4)GlcNAc(b1-6)[Gal(b1-3)GlcNAc(b1-3)]Gal(b1-4)Glc
Summary of the method: as §1

[13] = biological target: Gal(b1-3)GlcNAc(b1-3)Gal(b1-4)[Fuc(a1-3)]GlcNAc(b1-6)[Gal(b1-3)GlcNAc(b1-3)]Gal(b1-4)Glc
Summary of the method: as §1

[14] = biological target: Gal(b1-3)GlcNAc(b1-3)GalNAc
Summary of the method: as §1

[15] = biological target: Gal(b1-3)GlcNAc(b1-6)Gal(b1-4)GlcNAc
Summary of the method: as §1

[16] = biological target: Gal(b1-3)[Fuc(a1-4)]GlcNAc
Summary of the method: as §1

[17] = biological target: Gal(b1-3)[Fuc(a1-4)]GlcNAc(b1-2)Man(a1-3)[Gal(b1-3)[Fuc(a1-4)]GlcNAc(b1-2)Man(a1-6)]Man(b1-4)GlcNAc(b1-4)GlcNAc
Summary of the method: as §1

[18] = biological target: Gal(b1-3)[Fuc(a1-4)]GlcNAc(b1-2)Man(a1-3)[Gal(b1-3)[Fuc(a1-4)]GlcNAc(b1-2)Man(a1-6)]Man(b1-4)GlcNAc(b1-4)[Fuc(a1-6)]GlcNAc
Summary of the method: as §1

[19] = biological target: Gal(b1-3)[Fuc(a1-4)]GlcNAc(b1-3)Gal(b1-3)[Fuc(a1-4)]GlcNAc
Summary of the method: as §1

[20] = biological target: Gal(b1-3)[Fuc(a1-4)]GlcNAc(b1-3)Gal(b1-4)GlcNAc
Summary of the method: as §1

[21] = biological target: Gal(b1-3)[Fuc(a1-4)]GlcNAc(b1-3)Gal(b1-4)[Fuc(a1-3)]GlcNAc
Summary of the method: as §1

[22] = biological target: Gal(b1-3)[GlcNAc(b1-6)]GalNAc
Summary of the method: as §1

[23] = biological target: Gal(b1-3)[Neu5Ac(a2-6)]GalNAc
Summary of the method: as §1

[24] = biological target: Gal(b1-3)[Neu5Ac(a2-6)]GlcNAc(b1-6)Gal(b1-4)Glc
Summary of the method: as §1

[25] = biological target: Gal(b1-3)[Neu5Ac(b2-6)]GalNAc
Summary of the method: as §1

[26] = biological target: Gal(b1-4)GalNAc(a1-3)[Fuc(a1-2)]Gal(b1-4)GlcNAc
Summary of the method: as §1

[27] = biological target: Gal(b1-4)GalNAc(b1-3)[Fuc(a1-2)]Gal(b1-4)GlcNAc
Summary of the method: as §1

[28] = biological target: Gal(b1-4)Glc
Summary of the method: as §1

[29] = biological target: Gal(b1-4)Glc6S
Summary of the method: as §1

[30] = biological target: Gal(b1-4)GlcNAc
Summary of the method: as §1

B1: LERP (Drosophila melanogaster), B7Z0Q8 (protein)
chain: MRCSLQKDCAAPTQENFRQMRFPIVISLLLLLFCSGESVAADAANQLKFSTTECKLKEPIYGSTFDFSGLHSDLAHVVKSMNIGGDQFEFNICGNLSRTCNGESNVAACLKRQGKEYILGRQHELFYNNGNMFLKYKSGAKCDNGTADKPNYQLHVMFSCDYTLDAQPMHVTPYANEVCSFYISYRTPLACLSIPEGLQSNSCRVGDTKSNGTFDLMPLSDSNYHTSNRQGAFFVINVCKPVLYGENSMCPAGSSVCLFDSKATNPKERFINFGNVQTHPVVEKGQLLLRHESPTPCAKNSSANYTSVIYFSCDKFIRNAHPEFAGLGADSCTYQFNFATPLACNDLKPCTAFTSTNELLDLSSLSSKPARTLLKDGKNYTIAVCAHAGAPCQENGGACYEQNSTTISLGNSNSQLRFNQTGSLYLLYEDGAECSTATGMRRWSTKIEFVCANNATKDNGASTAGGSDSLKIIEDSNCQLLIQYQTPLACREPIRCKATTYVDHTNDGLGSSGDELIDLTPLISATDNYEARVELPASMEHLVPKTTKFFLNVCRPLVPKYQLGCAGGSAACMAKVTAAGAPEEERSMGFPLVSLTQRNRTFAELAYLKGDPCPTDNTSELSTHILFNCNMRAGRGQPVLRSVEDCAYRFEWETNVFCPPHECTFSADTCDLVHDELGRRFNFKSAPFTKDGKIEIDYNATKMSVNICGAHRKAMTDYSQALVNIFFTHESPNCGREGTMNVQIRLICSDQTESSSTISSDQQCNLLYVQRTPSICEFLSLGATQQNFESNGSTSSSTSSSSTSTTTSTTTQASPAGKPTKAATSTTTTTVGPDPAATPIGPTASVGTILGAILSVTFCVTCLGLLAFSPARRQRIRRLFRRSNSAVRYSRVQSNEEANLLLEPNGEFTESDDDMLL
How did the “glycan array binding signal (z-score)” value [1] turn out when B1 was run?
Its value is 0.279.

And the “glycan array binding signal (z-score)” value [2]?
Its value is -0.989.

And the “glycan array binding signal (z-score)” value [3]?
Its value is -0.354.

And the “glycan array binding signal (z-score)” value [4]?
The value was -0.302.

What about the “glycan array binding signal (z-score)” value [5] of the same binder?
The value was 0.159.

And the “glycan array binding signal (z-score)” value [6]?
Its value is -1.13.

What about the “glycan array binding signal (z-score)” value [7] of the same binder?
The value was -1.3.

What about the “glycan array binding signal (z-score)” value [8] of the same binder?
Its value is 0.938.

And the “glycan array binding signal (z-score)” value [9]?
The value was -0.572.

What about the “glycan array binding signal (z-score)” value [10] of the same binder?
The value was 0.732.

What about the “glycan array binding signal (z-score)” value [11] of the same binder?
Its value is -0.404.

What about the “glycan array binding signal (z-score)” value [12] of the same binder?
Its value is 0.223.

What about the “glycan array binding signal (z-score)” value [13] of the same binder?
The value was -0.58.

And the “glycan array binding signal (z-score)” value [14]?
The value was -0.333.

And the “glycan array binding signal (z-score)” value [15]?
Its value is -0.449.

What about the “glycan array binding signal (z-score)” value [16] of the same binder?
The value was 0.487.

And the “glycan array binding signal (z-score)” value [17]?
The value was 1.6.

What about the “glycan array binding signal (z-score)” value [18] of the same binder?
Its value is 5.88.

What about the “glycan array binding signal (z-score)” value [19] of the same binder?
Its value is 1.56.

And the “glycan array binding signal (z-score)” value [20]?
The value was 0.429.

And the “glycan array binding signal (z-score)” value [21]?
Its value is -0.847.

And the “glycan array binding signal (z-score)” value [22]?
The value was -0.465.

And the “glycan array binding signal (z-score)” value [23]?
The value was -0.837.

And the “glycan array binding signal (z-score)” value [24]?
The value was 0.244.

And the “glycan array binding signal (z-score)” value [25]?
Its value is -0.153.

And the “glycan array binding signal (z-score)” value [26]?
Its value is 0.664.

And the “glycan array binding signal (z-score)” value [27]?
Its value is 1.48.

What about the “glycan array binding signal (z-score)” value [28] of the same binder?
Its value is 0.771.

What about the “glycan array binding signal (z-score)” value [29] of the same binder?
The value was -0.389.

What about the “glycan array binding signal (z-score)” value [30] of the same binder?
The value was 0.272.
